These are yes or no findings as the source states them, for the method shown. Binding seen in cells or lysates may run through a third protein. Some entries that bind do so weakly or less than the wild type.
Biological target: HDAC6 expressed from the plasmid HDAC6 (gift) in HEK293T cells (UniProt Q9UBN7)
Test: co-IP; HEK293T cells co-transfected with plasmids for HDAC6 and HA-HSP90 AA1 or HA-HSP90 AB1, with or without heat shock at 43°C for 1 h; detected by WB

The chains behind the UniProt entries cited, without tags or fusion partners.
UniProt Q9UBN7: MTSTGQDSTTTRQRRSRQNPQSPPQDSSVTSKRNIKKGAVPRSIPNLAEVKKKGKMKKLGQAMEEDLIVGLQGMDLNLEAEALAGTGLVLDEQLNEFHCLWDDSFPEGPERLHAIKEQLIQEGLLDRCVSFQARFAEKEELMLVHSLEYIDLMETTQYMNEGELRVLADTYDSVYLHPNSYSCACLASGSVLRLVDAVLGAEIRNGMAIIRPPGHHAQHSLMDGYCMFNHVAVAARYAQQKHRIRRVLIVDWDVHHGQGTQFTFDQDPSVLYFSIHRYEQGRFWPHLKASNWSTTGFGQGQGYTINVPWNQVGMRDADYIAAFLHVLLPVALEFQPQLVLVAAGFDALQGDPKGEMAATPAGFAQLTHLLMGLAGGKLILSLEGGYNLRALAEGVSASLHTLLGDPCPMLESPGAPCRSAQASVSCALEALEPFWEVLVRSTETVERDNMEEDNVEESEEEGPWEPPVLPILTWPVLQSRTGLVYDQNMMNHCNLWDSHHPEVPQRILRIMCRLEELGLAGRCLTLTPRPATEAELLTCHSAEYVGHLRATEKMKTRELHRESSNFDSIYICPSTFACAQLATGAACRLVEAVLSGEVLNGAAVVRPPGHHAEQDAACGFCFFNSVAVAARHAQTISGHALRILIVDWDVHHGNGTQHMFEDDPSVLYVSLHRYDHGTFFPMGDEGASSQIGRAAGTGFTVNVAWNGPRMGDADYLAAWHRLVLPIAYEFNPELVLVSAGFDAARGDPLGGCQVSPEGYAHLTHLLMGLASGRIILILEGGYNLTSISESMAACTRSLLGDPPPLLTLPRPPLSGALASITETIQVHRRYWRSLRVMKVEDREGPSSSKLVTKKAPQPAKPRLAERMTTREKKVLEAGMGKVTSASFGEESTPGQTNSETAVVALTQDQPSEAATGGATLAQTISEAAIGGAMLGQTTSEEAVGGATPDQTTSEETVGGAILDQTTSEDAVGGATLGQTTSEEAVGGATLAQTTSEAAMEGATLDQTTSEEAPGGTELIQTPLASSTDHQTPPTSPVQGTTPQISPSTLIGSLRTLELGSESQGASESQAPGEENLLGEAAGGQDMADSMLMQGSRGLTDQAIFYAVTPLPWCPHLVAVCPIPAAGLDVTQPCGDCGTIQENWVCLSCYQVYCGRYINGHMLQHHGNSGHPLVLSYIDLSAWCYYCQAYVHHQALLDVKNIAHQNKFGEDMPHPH
UniProt P08238: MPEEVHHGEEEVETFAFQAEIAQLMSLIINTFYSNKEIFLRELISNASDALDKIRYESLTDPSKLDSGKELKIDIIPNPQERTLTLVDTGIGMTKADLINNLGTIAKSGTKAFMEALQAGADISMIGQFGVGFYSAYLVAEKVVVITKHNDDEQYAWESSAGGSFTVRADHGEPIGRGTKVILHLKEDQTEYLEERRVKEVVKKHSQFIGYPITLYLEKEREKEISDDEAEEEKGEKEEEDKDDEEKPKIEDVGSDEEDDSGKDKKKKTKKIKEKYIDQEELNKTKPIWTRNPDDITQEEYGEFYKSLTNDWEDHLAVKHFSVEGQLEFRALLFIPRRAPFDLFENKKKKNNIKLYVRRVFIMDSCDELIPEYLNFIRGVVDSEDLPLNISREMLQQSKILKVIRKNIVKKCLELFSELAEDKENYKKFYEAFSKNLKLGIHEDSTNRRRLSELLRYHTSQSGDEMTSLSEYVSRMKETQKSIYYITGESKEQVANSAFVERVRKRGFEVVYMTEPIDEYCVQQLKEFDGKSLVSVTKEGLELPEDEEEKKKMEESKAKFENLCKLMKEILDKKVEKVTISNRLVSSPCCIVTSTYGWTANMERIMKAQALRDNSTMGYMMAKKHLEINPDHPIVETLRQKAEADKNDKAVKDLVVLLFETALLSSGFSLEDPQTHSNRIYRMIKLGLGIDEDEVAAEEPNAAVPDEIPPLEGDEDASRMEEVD

binding | Substance
binds | HA-HSP90 AB1 (from UniProt P08238 1-724)
binds | HA-HSP90 AA1 (from UniProt P07900 1-732)

Source: PMC10539700
